Test results as given in article PMC7819943, “Rice protein-binding microarrays: a tool to detect cis-acting elements near promoter regions in rice”.
Some of the results follow.

The sequences below were run against T1, OsSMF1 (Oryza sativa, UniProt Q6ZLB0 1-436) (assay: protein-binding microarray (RPBM); PBS, 2% BSA, 51.3 ng/ul salmon testes DNA, 50 uM zinc acetate, 200 nM TF, 25 C, 1 h; high values mean tight binding). Settings: protein: recombinant; tags: N-terminal polyhistidine and DsRed monomer fusion (pET32a); chain copies: 2; label: CyDye5-dUTP incorporated in the synthesized complementary strand; 3' TTTTT single-stranded linker to array surface; dsDNA, one strand shown.
T1 sequence: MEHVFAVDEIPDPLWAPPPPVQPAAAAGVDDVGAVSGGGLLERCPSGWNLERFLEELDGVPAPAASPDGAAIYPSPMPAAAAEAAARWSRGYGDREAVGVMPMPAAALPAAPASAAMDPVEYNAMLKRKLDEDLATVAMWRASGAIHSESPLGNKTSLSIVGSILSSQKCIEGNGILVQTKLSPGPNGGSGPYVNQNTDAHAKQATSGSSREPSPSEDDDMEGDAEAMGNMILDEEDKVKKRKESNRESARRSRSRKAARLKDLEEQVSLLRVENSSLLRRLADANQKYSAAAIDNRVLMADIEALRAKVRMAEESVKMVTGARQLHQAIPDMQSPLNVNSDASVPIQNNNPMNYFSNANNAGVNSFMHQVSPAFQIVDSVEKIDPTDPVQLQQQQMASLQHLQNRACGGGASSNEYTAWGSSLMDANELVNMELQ
In short: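 Transcription factors were made in E. coli BL21-CodonPlus as N-terminal fusions to a polyhistidine tag and DsRed, then purified on Ni–NTA. After primer extension with Cy5-dUTP and blocking with 2% BSA, a custom Agilent array was exposed for 1 h at 25 °C to 200 nM protein in PBS, 2% BSA, salmon testes DNA and 50 µM zinc acetate. Washed arrays were scanned on an Axon 4000B, and the binding signal is per-feature fluorescence intensity in arbitrary units.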

| Sequence | binding signal |
| --- | --- |
| CGACGCGCACCGCACCGCGCAAGCACACGACACCTCGCGGCGGAGTCACCTAGTGCAG | 3430 fluorescence intensity (a.u.) |
| AAACAGTACCGGCGCGATTTATGACGGTTTCCTCGCGCCGCGGAGTCACCTAGTGCAG | 3410 fluorescence intensity (a.u.) |
| AAATGTTTCACACGTGTATGATCGTTTTGGAACTGTCACTCGGAGTCACCTAGTGCAG | 9010 fluorescence intensity (a.u.) |
| TCGCAGGCTTTAGCTCCCGCACGCGGCACGTCGTCGTCTTCGGAGTCACCTAGTGCAG | 3200 fluorescence intensity (a.u.) |
| GGAAGAAGTATCTAGCAAATTACTACTCTCTCTGTCCCTCCGGAGTCACCTAGTGCAG | 33400 fluorescence intensity (a.u.) |
| TATTAGAGTTGTGTTTGAGAGGAGATGAATCATCAACACACGGAGTCACCTAGTGCAG | 32200 fluorescence intensity (a.u.) |
| GGAAAGAGAAGAGAGGAAAGAGAGATGACGTGGACACCTGCGGAGTCACCTAGTGCAG | 21100 fluorescence intensity (a.u.) |
| CGTAAGCGCCACGTTAATGCCACGTGGGGCGAAGACCTAGCGGAGTCACCTAGTGCAG | 15100 fluorescence intensity (a.u.) |
| ACCTGTCATACACACATAACTTTTCAGTCACATCATCTTCCGGAGTCACCTAGTGCAG | 3330 fluorescence intensity (a.u.) |
| AACATGACAAGTGCATGTGTCATGACAAACTAGGAACTACCGGAGTCACCTAGTGCAG | 5180 fluorescence intensity (a.u.) |
| CCCTTCGGCCCATCTCCCTCCTTGGCCCATGTCGGCCCAGCGGAGTCACCTAGTGCAG | 21800 fluorescence intensity (a.u.) |
| ACTTAAGGTAGCTAAATTATTCGTCATCAAGACCTTCCTACGGAGTCACCTAGTGCAG | 5690 fluorescence intensity (a.u.) |
| CTCCAACTGTCCAACCCCACACAGGTCAGCACAAGGCATGCGGAGTCACCTAGTGCAG | 4050 fluorescence intensity (a.u.) |
| ATACATTGATTAATCAGCCAGCCAGCCAGCCAGCCACTGACGGAGTCACCTAGTGCAG | 3440 fluorescence intensity (a.u.) |
| CGCCCACTTGACTATTTCGTGGACCCTTCCTGTCTTGTCCCGGAGTCACCTAGTGCAG | 3280 fluorescence intensity (a.u.) |
| CGTGTCGTCGTGTCGCCCCACTCGCCCGTAATAAGTCCGTCGGAGTCACCTAGTGCAG | 3850 fluorescence intensity (a.u.) |
| TTGGCCTCTTGTATACTACCATTTGCAACAATAAAGCTTTCGGAGTCACCTAGTGCAG | 4480 fluorescence intensity (a.u.) |
| TCCCACTAGTACGTCGGCGCTACCGTGGCATGACACGTTACGGAGTCACCTAGTGCAG | 8270 fluorescence intensity (a.u.) |
| CAGAGAAGGTTCGAGACGCGTGGAGCAGCTTCGTCTCCGCCGGAGTCACCTAGTGCAG | 4020 fluorescence intensity (a.u.) |
| TAGTGGGGTGGCTTTGTCTGACATGGCAATTTGACCCAAGCGGAGTCACCTAGTGCAG | 8430 fluorescence intensity (a.u.) |
| TCGTCCCGCTCGGGCGACGTGGGCACTCTCGTGTCGTCGCCGGAGTCACCTAGTGCAG | 3790 fluorescence intensity (a.u.) |

| Sequence | binding signal |
| --- | --- |
| TTAATTATTTTGCTGACATGATTTGTTTTCATTTCGTTGACGGAGTCACCTAGTGCAG | 3290 fluorescence intensity (a.u.) |
| CAGTCCTCACACGTTCTCTTCCTCTCTCTCTCTCTCACTCCGGAGTCACCTAGTGCAG | 3470 fluorescence intensity (a.u.) |
| GGTTCTGGATAGCCATACAGCCAGCTTGTTCTGATAGCAACGGAGTCACCTAGTGCAG | 3270 fluorescence intensity (a.u.) |
| CCTCAATCCCCTCCTGTTGCATGCTAGCTGCTGTACACCACGGAGTCACCTAGTGCAG | 3160 fluorescence intensity (a.u.) |
| AGCGCCACCTCGACGGCGCCCAGCACCACCGCGCCCGCGCCGGAGTCACCTAGTGCAG | 4140 fluorescence intensity (a.u.) |
| GACTATCGTATCATGGAACGATGTGTCACTGTCACCAAATCGGAGTCACCTAGTGCAG | 6470 fluorescence intensity (a.u.) |
| CAGTGGAGGGTTGTGATTGGTTATGAAGAGAATGTTGGTGCGGAGTCACCTAGTGCAG | 3220 fluorescence intensity (a.u.) |
| ATACTATTAATACCTGATCCCACCTGTCATACACACGTTACGGAGTCACCTAGTGCAG | 4370 fluorescence intensity (a.u.) |
| CAAAACACACGTCAGTTTATAATCATAGTTTCGGCCTACTCGGAGTCACCTAGTGCAG | 10100 fluorescence intensity (a.u.) |
| GTGTGTGAAAGCATGGCTAACTCGTCTGGTCAAAGGCAAACGGAGTCACCTAGTGCAG | 27000 fluorescence intensity (a.u.) |
| GTGGAGAAACCAAACCTCTAATGATTCATGCTGCCACAAACGGAGTCACCTAGTGCAG | 3450 fluorescence intensity (a.u.) |
| GTAACCAGGAAATTGCTGAGATGAGTCTTCCTCTTACTCCCGGAGTCACCTAGTGCAG | 3210 fluorescence intensity (a.u.) |
| CTCGAAGATGGTGGCCCGAGGTGGAGCCCATATCATCATGCGGAGTCACCTAGTGCAG | 3900 fluorescence intensity (a.u.) |
| TACCGCGCGGCGATCGCCGAGTTCGTGGCGACGCTGCTGTCGGAGTCACCTAGTGCAG | 3230 fluorescence intensity (a.u.) |
| TTAATGTTAGCTAGGTTTAATTAAACCAGTTTGATATTATCGGAGTCACCTAGTGCAG | 36600 fluorescence intensity (a.u.) |
| CATTCGACGCGCACGTCGTATACGCACGCCGCCATGTCAGCGGAGTCACCTAGTGCAG | 9550 fluorescence intensity (a.u.) |
| TAGCATCACATTGTCAAGTCATGGTGCAATTATGCTTATACGGAGTCACCTAGTGCAG | 27300 fluorescence intensity (a.u.) |
| GAGACTCTGCCTTCCCCGTCTCTGATACTGTATGTGTTGCCGGAGTCACCTAGTGCAG | 17000 fluorescence intensity (a.u.) |
| GTTCCTTCGGCCAACTCATGTCCCTTCTTCTCCACGTCGTCGGAGTCACCTAGTGCAG | 6940 fluorescence intensity (a.u.) |
| TCGCGAAATAGCAATGACCACAACACGCGACGTGTCCTGACGGAGTCACCTAGTGCAG | 3320 fluorescence intensity (a.u.) |
| GGCTAATATTTTAGTGACGTGATTTTATTCAGCCGTCAGGCGGAGTCACCTAGTGCAG | 3510 fluorescence intensity (a.u.) |

Another view of some results above.
GTGTGTGAAAGCATGGCTAACTCGTCTGGTCAAAGGCAAACGGAGTCACCTAGTGCAG
  binding signal: 27000 fluorescence intensity (a.u.)
GTGGAGAAACCAAACCTCTAATGATTCATGCTGCCACAAACGGAGTCACCTAGTGCAG
  binding signal: 3450 fluorescence intensity (a.u.)
